{
  "source": "patent US20240210411A1",
  "about": "“COMPOUNDS COMPRISING AN ISOBARIC REGION, AN ENRICHMENT HANDLE, AND A THIOL-REACTIVE GROUP, AND METHODS OF USING THE SAME” (IQ Proteomics LLC, priority 2021, published 2024)",
  "tested_on": "cysteine-containing peptide from a known target of Ibrutinib",
  "test": "Multiplexed cysteine reactivity profiling (6-plex trifunctional tags, streptavidin enrichment, LC-MS) for target identification of a covalent drug",
  "format": "binding",
  "settings": "whole cell lysate, Ibrutinib 1 uM vs vehicle (DMSO), sets of three, FIG. 2E",
  "note": "At least one structure is not confirmed: it was looked up by name or label, or the drawing left a doubt.",
  "data": [
    {"smiles": "C=CC(=O)N1CCC[C@@H](n2nc(-c3ccc(Oc4ccccc4)cc3)c3c(N)ncnc32)C1", "note": "[Ibrutinib]", "values": [
      {"measurement": "reporter ion signal of the labeled cysteine-containing peptide in response to drug treatment (drug engagement at the cysteine)", "result": "expected reduction in signal"}
    ]}
  ]
}
